In PubChem BioAssay AID588590 (National Center for Advancing Translational Sciences (NCATS), 2011):
The campaign covered roughly 390,000 compounds. About 4,000 (1%) were called active. The shares of active, inactive and inconclusive entries below differ from those in the screen. Calls follow the shape of the dose curve; as a rule, active = well fitted inhibition curve with a large enough effect; inconclusive = small, poorly fitted or top-dose-only effect, or another doubt; inactive = no such curve, though single readings can be large or run the other way. A potency beside an inconclusive call is a rough fit, not a confirmed value. Residues, ends and D or L forms follow the SMILES beside them.

Protein sequences, listed by entry. Tags and fused reporters are not part of them. Lines headed by an entry give the natural chain unless they say otherwise; changes in a name come on top.
UniProt Q9UNA4: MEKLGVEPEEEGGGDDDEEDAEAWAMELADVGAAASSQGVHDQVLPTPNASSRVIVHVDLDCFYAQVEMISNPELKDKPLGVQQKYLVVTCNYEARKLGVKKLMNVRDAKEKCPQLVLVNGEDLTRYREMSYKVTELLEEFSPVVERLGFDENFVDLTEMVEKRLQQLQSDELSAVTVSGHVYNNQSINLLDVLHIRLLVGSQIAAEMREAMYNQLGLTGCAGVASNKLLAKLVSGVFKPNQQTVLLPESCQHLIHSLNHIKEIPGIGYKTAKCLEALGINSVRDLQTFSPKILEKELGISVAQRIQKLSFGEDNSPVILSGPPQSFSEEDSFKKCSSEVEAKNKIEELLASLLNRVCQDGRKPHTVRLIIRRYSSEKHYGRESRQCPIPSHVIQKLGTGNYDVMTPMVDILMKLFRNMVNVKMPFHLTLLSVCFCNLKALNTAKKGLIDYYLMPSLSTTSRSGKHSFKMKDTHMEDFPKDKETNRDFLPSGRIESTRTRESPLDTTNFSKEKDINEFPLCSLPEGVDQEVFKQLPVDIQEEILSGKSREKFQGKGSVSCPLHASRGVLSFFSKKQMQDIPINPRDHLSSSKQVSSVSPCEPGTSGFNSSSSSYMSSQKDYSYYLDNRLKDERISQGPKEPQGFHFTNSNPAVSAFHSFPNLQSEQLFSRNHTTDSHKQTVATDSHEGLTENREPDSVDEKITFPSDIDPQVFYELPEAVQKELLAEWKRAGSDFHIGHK

biological target: DNA polymerase iota (Homo sapiens) (UniProt Q9UNA4); test: qHTS for Inhibitors of Polymerase Iota; settings: Pol iota fluorescent replication assay, 10 min; series mostly up to 115 µM; activity, negative = inhibition: at the top concentration
Outline: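 Fluorescent replication assay read twice, at 0 min and 10 min after adding 50 nM (final) substrate. Enzyme (10 nM) and compounds were first incubated 15 min at room temperature; enzyme-free buffer wells were negative controls.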
Potency is read from the fitted curve at half-maximal effect.

Potency, inconclusive:
CC1Cc2ccccc2N1C(=O)COC(=O)c1ccc([N+](=O)[O-])o1 (stereo not drawn) 79.4 µM [inhibitor, partial curve]
CCN(CC)S(=O)(=O)c1ccc(NC(=O)Cc2cccs2)cc1 39.8 µM [inhibitor, single point]
O=[N+]([O-])c1cc(S(=O)(=O)Nc2cccc(Cl)c2)ccc1N=Nc1c(O)[nH]c2ccccc12 44.7 µM [inhibitor, partial curve]
Cc1ccc(N=C2S/C(=C/c3cccc(OCC(=O)O)c3)C(=O)N2C)cc1C 7.94 µM [inhibitor, partial curve, poor fit]
C#CCN(C#N)c1nc(NCC)nc(NC(C)C)n1 28.2 µM [inhibitor, partial curve, poor fit]
O=C(NCc1cc(C(F)(F)F)cc(C(F)(F)F)c1)C1CC(c2c(Cl)cccc2Cl)=NO1 (stereo not drawn) 2.82 µM [inhibitor, full curve, poor fit]
COC(=O)c1ccc(C2NC(C(=O)O)CS2)cc1 (stereo not drawn) 39.8 µM [inhibitor, single point]
COc1ccc(CCNC(=O)c2ccc(COc3ccccc3OC)o2)cc1 35.5 µM [inhibitor, single point]
C=CCN1C(=O)/C(=C\C(C)=C\c2ccccc2)SC1=S 79.4 µM [inhibitor, partial curve]
COc1ccc(C(c2c(C)n(C)n(-c3ccccc3)c2=O)c2c(C)n(C)n(-c3ccccc3)c2=O)cc1OC 35.5 µM [inhibitor, partial curve, poor fit]
O=C(CN1CCN(c2ccc(O)cc2)CC1)Nc1ccc(-c2ccccc2)cc1 25.1 µM [inhibitor, full curve]
Cc1ccc(CC(NC(=O)c2ccccc2)C(=O)NCC(=O)O)cc1 (stereo not drawn) (HELM PEPTIDE1{[O=C(c1ccccc1)[*:2]].[Cc1ccc(CC(N[*:1])C(=O)[*:2])cc1].G}$$$$V2.0) 79.4 µM [inhibitor, partial curve, poor fit]
Cc1ccc(CNC(=O)c2c[nH]c3ccc(S(=O)(=O)Nc4ccc(C(C)C)cc4)cc3c2=O)cc1 100 µM [inhibitor, single point]
CCC(C)(C)n1nnnc1C(c1ccc(O)c(OC)c1)N1CCc2ccccc2C1 (stereo not drawn) 14.1 µM [inhibitor, partial curve]
Cc1cc(/C=C2\SC(=S)NC2=O)c(C)n1C1CC1 17.8 µM [inhibitor, single point]
O=C(C1CCCCC1)N(CCN1CCCC1)c1nc2ccccc2s1 89.1 µM [inhibitor, partial curve, poor fit]
CS(=O)(=O)c1ccc(C(=O)OCC(=O)NC(=O)C2COc3ccccc3O2)cc1[N+](=O)[O-] (stereo not drawn) 20 µM [inhibitor, partial curve, poor fit]
C=CCn1c(NC(=O)c2ccccc2Cl)c(C#N)c2nc3ccccc3nc21 5.01 µM [inhibitor, full curve, poor fit]
CC(C)(C=O)Cc1cc(C(C)(C)C)c(O)c(C(C)(C)C)c1 89.1 µM [inhibitor, single point]
O=C(COC(=O)c1ccc(C(F)(F)F)cc1)Nc1cccc(S(=O)(=O)N2CCCCC2)c1 12.6 µM [inhibitor, partial curve, poor fit]
COc1ccc(/C=C2\CN(Cc3ccccc3)C/C(=C\c3ccc(OC)c(O)c3)C2=O)cc1O 22.4 µM [inhibitor, full curve]
COc1ccc(N2C(=O)CC(c3ccc(OC(C)C)cc3)C2=O)cc1 (stereo not drawn) 100 µM [inhibitor, single point]
O=C(CN1C(=O)S/C(=C\C=C\c2ccccc2)C1=O)Nc1ccc(C(=O)O)cc1 25.1 µM [inhibitor, partial curve]
CN(CCO)c1nc(-c2cccs2)nc2ccccc12 56.2 µM [inhibitor, single point]
CCCC(=O)N(Cc1cc2ccccc2[nH]c1=O)c1ccccc1OC 89.1 µM [inhibitor, partial curve, poor fit]
O=[N+]([O-])c1ccc(N=Nc2ccc(O)c3ccccc23)cc1 28.2 µM [inhibitor, partial curve, poor fit]
Cc1ccc(S(=O)(=O)c2nnn(CC(=O)Nc3ccccc3C)c2N)cc1C 89.1 µM [inhibitor, single point]
O=C(OCC(=O)c1ccc[nH]1)C1=COCCO1 56.2 µM [inhibitor, partial curve, poor fit]
CCc1ccccc1NC(=O)C1CC(c2ccc(OC)cc2)=NO1 (stereo not drawn) 35.5 µM [inhibitor, single point]
CCOc1cccc(C(=O)Nc2ccc3oc(-c4ccc(C(C)(C)C)cc4)nc3c2)c1 89.1 µM [inhibitor, single point]
COc1ccc2[nH]c(C)c(CN3CCCCC3)c(=O)c2c1 100 µM [inhibitor, single point]
CCCCNc1c(-c2ccc(SC3CCCCC3)cc2)nc2ccccn12 2.82 µM [inhibitor, full curve, poor fit]
Cc1ccn2cc(-c3nonc3C)cc2c1 2.82 µM [inhibitor, full curve, poor fit]
CCn1c(/C=C/c2ccc([N+](=O)[O-])o2)nc2ccccc2c1=O 2 µM [inhibitor, full curve, poor fit]
Nc1c(Cl)c(Cl)nc(C(=O)OCC(=O)N2CCCC2=O)c1Cl 56.2 µM [inhibitor, partial curve, poor fit]
Cc1ccc(S(=O)(=O)N2CCCC2CNC(=O)c2ccc3c(c2)OCO3)cc1 (stereo not drawn) 70.8 µM [inhibitor, single point]
CN(C)/C=C/C(=O)c1ccc2noc(-c3ccc(F)cc3)c2c1 14.1 µM [inhibitor, partial curve]
Cc1nc(SCc2nc3c(C)cccc3[nH]2)c2oc3ccccc3c2n1 11.2 µM [inhibitor, partial curve, poor fit]
O=C(CSc1oc(-c2ccco2)nc1S(=O)(=O)c1ccc(Cl)cc1)NCC1CCCO1 (stereo not drawn) 15.8 µM [inhibitor, full curve]
O=[n+]1c2c(n([O-])c3cc(F)c(N4CCCC4)cc31)CCC2 28.2 µM [inhibitor, full curve, poor fit]
CCOc1ccc(/C(O)=C2/C(=O)C(=O)N(c3cc(C)on3)C2c2ccc(C(=O)OC)cc2)cc1 (stereo not drawn) 39.8 µM [inhibitor, partial curve, poor fit]
COc1ccc(NC2=C(NCCO)C(=O)c3ccccc3C2=O)cc1 17.8 µM [inhibitor, full curve]
Cc1cccc(N=Nc2c(O)[nH]c3ccc(Br)cc23)c1 89.1 µM [inhibitor, single point]
CC(=O)c1cc(OC(=O)c2ccncc2)ccc1OC(=O)c1ccncc1 14.1 µM [inhibitor, partial curve, poor fit]
Cc1sc(C2C(C#N)=C(N)N(c3cccc(Cl)c3)C3=C2C(=O)CCC3)cc1CN1CCOCC1 (stereo not drawn) 39.8 µM [inhibitor, full curve]

Potency, active:
O=C(CSc1c2c(nc3ccc(Cl)cc13)CCCC2)N1CCN(C(=O)c2ccco2)CC1 20 µM
O=S(=O)(O)c1cc(O)c2c(O)c(N=Nc3cc(Cl)ccc3O)c(S(=O)(=O)O)cc2c1 22.4 µM

activity, negative = inhibition, inactive:
COc1ccc(NC(=O)Cn2cnc3c(nc4n3CCCCC4)c2=O)c(OC)c1 -16%
CC(C)Oc1ccc(C(=O)Nc2ccc3oc(-c4ccncc4)nc3c2)cc1 -3.18%
N#Cc1c(-c2ccccc2)no[n+]1[O-] 0.533% [at 58.9 µM]
Cc1cc(C)cc(C(=O)C[n+]2cccc(Br)c2)c1 -5.46%
COc1ccc(Cl)cc1NS(=O)(=O)c1c(C)nc2scc(C)n2c1=O 15.2%
CCOc1ccc2nc(N(Cc3cccnc3)C(=O)c3ccc4c(c3)OCCO4)sc2c1 6.42%
O=C(Cn1nnc(-c2ccc(Cl)cc2)n1)NC1CCS(=O)(=O)C1 (stereo not drawn) 38.2%
O=C(CCC1N=C2c3ccccc3N=C(SCc3ccccc3Cl)N2C1=O)NCc1cccs1 (stereo not drawn) 24.1%
CCO[C@H]1OC(C(=O)N2CCN(Cc3ccc4c(c3)OCO4)CC2)=C[C@@H](C2CC2)[C@@H]1CCCO 5.49%
CS(=O)(=O)c1cccc(NC(=O)c2ccc(Cl)c(Cl)c2)c1 71%
COc1cc(/C=C/C(=O)O)cc(S(=O)(=O)NNC(=O)c2ccc3c(c2)OCO3)c1OC 50.6%
O=C(CSc1ccc(-c2ccco2)nn1)NC1CCCC1 17.3%
CC(CCO)Nc1nc2c(c(=O)n(C)c(=O)n2C)n1Cc1ccc(Br)cc1 (stereo not drawn) 30%
COc1ccc(-c2n[nH]c3c2C(c2ccc(Cl)cc2Cl)NC3=O)cc1 (stereo not drawn) -10.5%
COc1ccc(OC)c(CN2CCN(C(=O)c3cc(S(=O)(=O)N4CCOCC4)ccc3C)CC2)c1 31%
CC(C)CCNC(=O)c1ccc(Cn2c(=O)c3cccn3c3cccnc32)cc1 -15.9%

Taken from the listing, two compounds:
activity, negative = inhibition, inactive:
COc1cc(/C=C/C(=O)O)cc(S(=O)(=O)NNC(=O)c2ccc3c(c2)OCO3)c1OC 50.6%
O=C(CSc1ccc(-c2ccco2)nn1)NC1CCCC1 17.3%

Retrieved one by one from the entries so far (3):
activity, negative = inhibition, inactive:
O=C(Cn1nnc(-c2ccc(Cl)cc2)n1)NC1CCS(=O)(=O)C1 (stereo not drawn) 38.2%
N#Cc1c(-c2ccccc2)no[n+]1[O-] 0.533% [at 58.9 µM]
O=C(CSc1ccc(-c2ccco2)nn1)NC1CCCC1 17.3%
